# Measured values taken from paper PMC7862700.
# Amino acid sequences for entries named in this document (tags omitted). A change or cut given only in a name is not applied to a line headed by its entry.
# UniProt P32519: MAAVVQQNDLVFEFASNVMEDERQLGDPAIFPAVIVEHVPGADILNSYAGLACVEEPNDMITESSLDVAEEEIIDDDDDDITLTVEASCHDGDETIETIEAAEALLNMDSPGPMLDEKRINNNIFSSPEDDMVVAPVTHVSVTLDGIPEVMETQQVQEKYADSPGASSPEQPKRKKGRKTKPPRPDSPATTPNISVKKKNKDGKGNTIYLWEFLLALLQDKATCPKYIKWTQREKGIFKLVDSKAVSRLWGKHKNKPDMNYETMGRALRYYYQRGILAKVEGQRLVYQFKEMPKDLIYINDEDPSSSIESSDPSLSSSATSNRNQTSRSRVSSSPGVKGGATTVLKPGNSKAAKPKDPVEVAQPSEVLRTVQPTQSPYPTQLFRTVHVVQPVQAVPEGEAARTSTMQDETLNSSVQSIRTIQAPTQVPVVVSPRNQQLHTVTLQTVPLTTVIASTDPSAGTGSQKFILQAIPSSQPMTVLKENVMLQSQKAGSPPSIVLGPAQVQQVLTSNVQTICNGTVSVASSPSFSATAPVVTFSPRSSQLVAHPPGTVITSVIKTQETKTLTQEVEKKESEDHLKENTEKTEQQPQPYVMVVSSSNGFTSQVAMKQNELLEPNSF
# UniProt P50549: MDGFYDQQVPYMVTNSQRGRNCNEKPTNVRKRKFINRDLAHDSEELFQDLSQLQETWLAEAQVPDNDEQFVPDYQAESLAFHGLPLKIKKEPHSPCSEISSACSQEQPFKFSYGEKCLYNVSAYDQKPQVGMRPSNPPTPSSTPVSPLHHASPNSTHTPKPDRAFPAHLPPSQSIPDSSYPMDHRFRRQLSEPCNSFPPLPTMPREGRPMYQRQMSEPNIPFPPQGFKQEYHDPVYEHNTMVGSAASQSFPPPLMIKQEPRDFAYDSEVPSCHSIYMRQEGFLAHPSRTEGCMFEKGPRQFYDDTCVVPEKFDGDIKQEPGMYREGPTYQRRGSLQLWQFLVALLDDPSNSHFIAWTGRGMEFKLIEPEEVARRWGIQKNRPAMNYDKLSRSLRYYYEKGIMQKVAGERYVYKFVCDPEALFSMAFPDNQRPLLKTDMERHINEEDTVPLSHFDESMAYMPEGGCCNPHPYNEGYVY
# This is a selection; strong and weak results do not stand in their true shares. For part of these data: At the low end of the ranking the order means little. This is one part of the list. For part of these data: The exact form of the protein is not confirmed.
# Key:
# Test in all cases: DAPPL (digital affinity profiling via proximity ligation, sequencing)
# Details in all cases: 10 mM Tris-HCl pH 7.5, 50 mM NaCl, 1 mM DTT, 4% glycerol, room temperature, 30 min; GST-TFs on glutathione beads, 16-mer random dsDNA library, 0.1% …; high values mean tight binding; double strand, one strand shown; scale: fold enrichment (6-mer frequency, TF over GST control)
# [1] = biological target: T1, ERG (UniProt P11308)
# T1 sequence: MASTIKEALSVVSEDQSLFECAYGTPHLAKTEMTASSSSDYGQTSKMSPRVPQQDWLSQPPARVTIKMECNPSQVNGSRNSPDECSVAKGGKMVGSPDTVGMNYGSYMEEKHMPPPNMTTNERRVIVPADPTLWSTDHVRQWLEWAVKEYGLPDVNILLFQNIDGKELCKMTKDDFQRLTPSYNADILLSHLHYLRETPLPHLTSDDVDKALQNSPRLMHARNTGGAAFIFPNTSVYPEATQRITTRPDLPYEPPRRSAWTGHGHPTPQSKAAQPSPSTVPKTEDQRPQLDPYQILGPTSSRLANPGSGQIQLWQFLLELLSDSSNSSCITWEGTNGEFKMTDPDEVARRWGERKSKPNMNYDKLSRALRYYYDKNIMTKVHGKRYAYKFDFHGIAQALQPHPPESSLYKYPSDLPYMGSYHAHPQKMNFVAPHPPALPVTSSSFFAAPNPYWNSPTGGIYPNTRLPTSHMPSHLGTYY
# [2] = biological target: ELF1 (UniProt P32519)
# [3] = biological target: T2, ELK4 (UniProt P28324-2)
# T2 sequence: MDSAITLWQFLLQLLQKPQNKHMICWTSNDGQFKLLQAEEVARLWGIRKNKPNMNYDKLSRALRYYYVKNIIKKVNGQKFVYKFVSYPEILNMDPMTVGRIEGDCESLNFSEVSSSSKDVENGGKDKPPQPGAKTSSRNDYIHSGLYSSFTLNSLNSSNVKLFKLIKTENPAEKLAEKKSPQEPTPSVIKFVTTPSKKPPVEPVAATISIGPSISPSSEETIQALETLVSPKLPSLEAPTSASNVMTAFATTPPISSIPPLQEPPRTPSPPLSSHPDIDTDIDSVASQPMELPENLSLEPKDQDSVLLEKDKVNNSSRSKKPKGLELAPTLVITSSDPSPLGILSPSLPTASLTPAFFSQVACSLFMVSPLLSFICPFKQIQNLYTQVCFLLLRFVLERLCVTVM
# [4] = biological target: T3, ETV4 (UniProt P43268)
# T3 sequence: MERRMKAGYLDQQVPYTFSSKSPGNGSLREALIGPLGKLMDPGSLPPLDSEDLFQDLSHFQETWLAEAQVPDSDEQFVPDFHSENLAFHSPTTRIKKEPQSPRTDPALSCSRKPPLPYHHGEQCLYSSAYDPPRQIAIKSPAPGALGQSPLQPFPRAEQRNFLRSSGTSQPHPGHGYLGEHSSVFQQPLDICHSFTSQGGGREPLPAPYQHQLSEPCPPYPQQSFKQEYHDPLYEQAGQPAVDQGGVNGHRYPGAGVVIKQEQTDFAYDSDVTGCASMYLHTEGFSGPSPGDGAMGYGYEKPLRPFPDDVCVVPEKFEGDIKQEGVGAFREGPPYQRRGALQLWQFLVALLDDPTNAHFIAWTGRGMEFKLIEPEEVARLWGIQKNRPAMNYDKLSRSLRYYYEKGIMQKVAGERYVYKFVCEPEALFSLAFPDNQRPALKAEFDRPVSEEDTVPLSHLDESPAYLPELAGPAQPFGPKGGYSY
# [5] = biological target: ETV1 (UniProt P50549)
# [6] = biological target: T4, ERF (UniProt P50548)
# T4 sequence: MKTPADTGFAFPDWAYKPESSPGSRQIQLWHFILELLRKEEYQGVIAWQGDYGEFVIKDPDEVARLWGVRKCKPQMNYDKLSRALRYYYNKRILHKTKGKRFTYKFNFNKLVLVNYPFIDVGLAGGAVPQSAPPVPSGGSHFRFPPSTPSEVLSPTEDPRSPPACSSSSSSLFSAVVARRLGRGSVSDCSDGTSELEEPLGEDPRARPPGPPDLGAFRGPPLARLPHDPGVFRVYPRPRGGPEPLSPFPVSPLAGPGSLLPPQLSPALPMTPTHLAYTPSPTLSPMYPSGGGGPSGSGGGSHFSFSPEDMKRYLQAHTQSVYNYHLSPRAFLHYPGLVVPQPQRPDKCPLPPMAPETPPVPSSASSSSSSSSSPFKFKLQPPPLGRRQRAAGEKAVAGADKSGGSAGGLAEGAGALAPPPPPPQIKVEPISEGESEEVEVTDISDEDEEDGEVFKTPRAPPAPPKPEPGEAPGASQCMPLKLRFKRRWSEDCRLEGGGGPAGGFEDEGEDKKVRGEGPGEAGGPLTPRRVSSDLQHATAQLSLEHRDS
Sequence,binding signal [1],binding signal [2],binding signal [3],binding signal [4],binding signal [5],binding signal [6]
TAAGGA,0.868,0.865,0.78,0.842,0.855,0.815
GCGACA,0.953,1,0.986,0.971,0.916,1.04
GTGCAC,0.886,0.95,0.918,0.973,0.905,0.994
CAGAAA,0.898,0.942,0.885,0.901,0.92,0.939
AGTTAT,0.884,0.874,0.961,0.882,0.885,0.881
ACGCCA,0.879,0.924,0.995,0.869,0.873,0.932
GTATGT,0.98,1.03,0.971,0.936,0.988,0.894
GCAGAT,0.931,0.941,1.04,0.963,0.914,0.909
GCAGCC,1.04,0.993,1.11,0.943,0.927,0.984
GCGACG,0.948,0.912,0.886,0.986,0.914,0.996
TGTAGA,0.912,0.962,0.949,0.935,0.911,0.961
GGTTGT,0.843,0.896,0.979,0.946,0.882,0.877
GCCATC,0.997,0.982,0.958,0.868,0.928,0.935
TCGAAG,0.787,0.905,0.909,0.912,0.918,0.963
GACTCG,0.833,0.92,0.921,0.894,0.969,0.878
CGGACC,0.797,0.838,0.731,0.906,0.783,0.768
GATCGA,0.776,0.862,0.914,0.755,0.851,0.849
GAGCTT,0.976,0.957,0.78,1.02,0.923,0.98
GATTAG,0.856,0.954,0.923,0.83,0.912,0.926
AGCACG,0.855,0.914,0.879,0.977,0.901,1.01
AGATGT,0.904,0.936,0.926,0.92,0.829,0.943
GCGCGT,0.795,0.848,0.913,0.802,0.874,0.841
AGAATG,0.99,0.985,0.894,0.982,0.912,0.959
GTCTGG,0.896,0.833,0.774,0.874,0.873,0.872
GAGAAT,0.786,0.761,0.763,0.712,0.687,0.687
ATAGGG,0.983,0.993,1.06,0.943,0.983,1.14

Sequence,binding signal [1],binding signal [2],binding signal [3],binding signal [4],binding signal [5],binding signal [6]
TAGTCA,0.948,0.92,0.929,0.943,0.962,0.892
GACCCA,0.873,0.94,0.917,0.934,0.71,0.819
TGCGGT,0.927,0.911,0.893,1.04,0.907,0.875
GTGCCG,0.941,0.929,0.921,0.895,0.939,0.791
ATCAAG,0.932,0.937,0.997,0.932,0.984,0.878
TGTTGG,0.913,0.967,0.856,0.872,0.903,0.94
AGGCTA,0.853,0.987,0.896,0.896,0.905,0.887
AGGCAC,0.885,0.88,0.891,0.894,0.902,0.857
GTTGGC,0.87,0.947,0.943,0.874,0.848,0.84
TGTCAG,0.926,0.895,1.02,0.938,0.9,0.938
CAGAAC,0.889,0.938,0.814,0.805,0.877,0.93
GCCCGG,0.957,0.981,0.87,0.967,0.99,0.85
GTCACC,0.936,0.927,0.849,1.02,0.929,0.753
TGCAGA,0.928,0.927,0.989,0.915,0.999,0.956
TCGAGG,0.805,0.749,0.793,0.737,0.86,0.918
CATTGG,0.848,0.939,0.86,0.892,0.886,1.05
TCGAGA,0.571,0.621,0.571,0.633,0.598,0.616
ACAGAA,0.892,0.946,0.957,0.881,0.921,0.896
CGTCGA,0.863,0.838,0.878,0.828,0.89,0.893
TAAGGC,0.867,0.897,0.944,0.862,0.957,0.904
GAAAGC,0.957,0.861,0.972,0.888,0.838,0.888
TTAGTG,0.784,0.922,1.11,0.871,0.85,0.702
GCGATC,0.999,1.06,1.13,1.04,1.03,0.931
TTGAGA,0.875,0.873,0.992,0.815,0.86,0.924
GAATCA,0.955,0.927,0.955,0.938,0.878,0.974

# Looked up one by one from the list above (4):
Sequence,binding signal [1],binding signal [2],binding signal [3],binding signal [4],binding signal [5],binding signal [6]
TGCAGA,0.928,0.927,0.989,0.915,0.999,0.956
GACCCA,0.873,0.94,0.917,0.934,0.71,0.819
TTGAGA,0.875,0.873,0.992,0.815,0.86,0.924
ACAGAA,0.892,0.946,0.957,0.881,0.921,0.896
